From the supplement of paper PMC10849652
Some of the results follow.

The chains behind the UniProt entries cited, without tags or fusion partners. Where a name states a change or a piece, a line headed by the entry shows the natural chain unless it says otherwise.
UniProt Q96C11: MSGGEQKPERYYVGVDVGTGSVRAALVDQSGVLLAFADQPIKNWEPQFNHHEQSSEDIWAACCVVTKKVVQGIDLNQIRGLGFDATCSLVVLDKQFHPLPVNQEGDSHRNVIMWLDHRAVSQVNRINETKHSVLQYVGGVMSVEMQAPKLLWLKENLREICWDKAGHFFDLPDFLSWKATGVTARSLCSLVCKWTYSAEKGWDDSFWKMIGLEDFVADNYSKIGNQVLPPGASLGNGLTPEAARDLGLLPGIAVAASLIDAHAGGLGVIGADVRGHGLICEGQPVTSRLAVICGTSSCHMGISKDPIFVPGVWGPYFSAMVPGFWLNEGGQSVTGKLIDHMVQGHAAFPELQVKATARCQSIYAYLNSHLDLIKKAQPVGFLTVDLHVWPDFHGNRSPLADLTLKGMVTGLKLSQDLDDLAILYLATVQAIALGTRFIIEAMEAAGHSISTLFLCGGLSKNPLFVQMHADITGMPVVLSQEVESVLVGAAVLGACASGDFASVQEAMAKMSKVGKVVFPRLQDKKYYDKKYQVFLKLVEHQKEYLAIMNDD
UniProt Q13643: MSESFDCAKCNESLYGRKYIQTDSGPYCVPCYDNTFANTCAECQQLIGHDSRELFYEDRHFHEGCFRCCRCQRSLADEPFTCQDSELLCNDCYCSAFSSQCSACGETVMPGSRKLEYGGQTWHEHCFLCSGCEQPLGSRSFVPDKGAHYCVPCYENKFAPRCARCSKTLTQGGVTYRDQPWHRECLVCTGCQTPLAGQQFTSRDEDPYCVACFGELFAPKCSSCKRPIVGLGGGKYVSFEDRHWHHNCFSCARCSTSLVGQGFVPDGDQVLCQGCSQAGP
UniProt Q9UHY8: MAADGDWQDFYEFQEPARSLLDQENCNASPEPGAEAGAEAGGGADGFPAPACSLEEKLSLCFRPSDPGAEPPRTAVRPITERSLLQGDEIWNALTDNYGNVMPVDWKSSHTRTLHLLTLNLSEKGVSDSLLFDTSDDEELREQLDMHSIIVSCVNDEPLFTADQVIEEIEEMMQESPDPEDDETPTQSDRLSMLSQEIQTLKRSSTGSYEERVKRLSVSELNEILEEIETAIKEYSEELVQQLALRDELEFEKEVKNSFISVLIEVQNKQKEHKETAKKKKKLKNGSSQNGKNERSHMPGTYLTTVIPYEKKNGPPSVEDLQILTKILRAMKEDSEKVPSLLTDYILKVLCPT
UniProt P22087: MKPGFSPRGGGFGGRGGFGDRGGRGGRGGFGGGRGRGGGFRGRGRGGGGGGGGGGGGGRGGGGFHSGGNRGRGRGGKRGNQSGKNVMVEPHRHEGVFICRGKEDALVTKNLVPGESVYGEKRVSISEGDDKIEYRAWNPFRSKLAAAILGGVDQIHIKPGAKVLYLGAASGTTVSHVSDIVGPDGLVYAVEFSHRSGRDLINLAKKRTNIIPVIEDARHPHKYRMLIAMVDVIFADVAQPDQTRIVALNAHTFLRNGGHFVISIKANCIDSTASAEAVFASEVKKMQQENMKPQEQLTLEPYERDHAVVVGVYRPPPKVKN
UniProt P22570: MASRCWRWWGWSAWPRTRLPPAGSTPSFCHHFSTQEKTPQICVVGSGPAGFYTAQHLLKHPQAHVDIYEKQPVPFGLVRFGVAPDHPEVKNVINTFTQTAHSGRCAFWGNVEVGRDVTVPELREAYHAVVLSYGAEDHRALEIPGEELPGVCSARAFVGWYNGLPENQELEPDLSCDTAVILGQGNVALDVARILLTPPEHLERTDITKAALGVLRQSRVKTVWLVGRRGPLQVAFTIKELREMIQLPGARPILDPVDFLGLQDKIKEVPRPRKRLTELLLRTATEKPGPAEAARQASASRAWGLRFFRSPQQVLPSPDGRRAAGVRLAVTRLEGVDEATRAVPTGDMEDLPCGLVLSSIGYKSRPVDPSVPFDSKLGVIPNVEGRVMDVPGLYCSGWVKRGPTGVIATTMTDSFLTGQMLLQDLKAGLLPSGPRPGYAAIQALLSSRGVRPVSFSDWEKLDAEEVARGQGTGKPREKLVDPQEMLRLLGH
UniProt Q92562: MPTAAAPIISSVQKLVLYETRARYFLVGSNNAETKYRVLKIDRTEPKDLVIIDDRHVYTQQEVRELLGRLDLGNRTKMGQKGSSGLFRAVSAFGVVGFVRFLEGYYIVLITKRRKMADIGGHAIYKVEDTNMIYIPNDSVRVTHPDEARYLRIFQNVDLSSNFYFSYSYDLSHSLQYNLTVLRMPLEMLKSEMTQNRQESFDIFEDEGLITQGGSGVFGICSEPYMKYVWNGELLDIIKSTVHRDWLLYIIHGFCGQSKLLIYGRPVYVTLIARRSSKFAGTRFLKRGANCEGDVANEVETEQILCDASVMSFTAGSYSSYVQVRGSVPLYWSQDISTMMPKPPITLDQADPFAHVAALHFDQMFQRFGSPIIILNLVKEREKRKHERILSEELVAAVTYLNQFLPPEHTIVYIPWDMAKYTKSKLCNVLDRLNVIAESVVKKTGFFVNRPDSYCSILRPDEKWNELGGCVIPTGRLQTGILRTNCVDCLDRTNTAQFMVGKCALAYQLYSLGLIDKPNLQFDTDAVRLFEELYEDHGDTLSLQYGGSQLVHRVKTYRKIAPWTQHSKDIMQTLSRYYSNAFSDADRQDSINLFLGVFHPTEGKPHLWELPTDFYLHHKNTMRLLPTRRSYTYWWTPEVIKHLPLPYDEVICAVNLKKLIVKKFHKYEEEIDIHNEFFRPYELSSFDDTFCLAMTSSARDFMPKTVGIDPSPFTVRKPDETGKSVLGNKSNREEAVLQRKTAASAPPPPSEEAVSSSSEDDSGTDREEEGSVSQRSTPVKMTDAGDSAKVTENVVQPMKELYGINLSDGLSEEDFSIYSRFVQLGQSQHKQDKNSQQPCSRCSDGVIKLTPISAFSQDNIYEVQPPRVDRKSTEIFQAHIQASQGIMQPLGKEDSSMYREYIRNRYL
UniProt O75369, whole entry, looked up: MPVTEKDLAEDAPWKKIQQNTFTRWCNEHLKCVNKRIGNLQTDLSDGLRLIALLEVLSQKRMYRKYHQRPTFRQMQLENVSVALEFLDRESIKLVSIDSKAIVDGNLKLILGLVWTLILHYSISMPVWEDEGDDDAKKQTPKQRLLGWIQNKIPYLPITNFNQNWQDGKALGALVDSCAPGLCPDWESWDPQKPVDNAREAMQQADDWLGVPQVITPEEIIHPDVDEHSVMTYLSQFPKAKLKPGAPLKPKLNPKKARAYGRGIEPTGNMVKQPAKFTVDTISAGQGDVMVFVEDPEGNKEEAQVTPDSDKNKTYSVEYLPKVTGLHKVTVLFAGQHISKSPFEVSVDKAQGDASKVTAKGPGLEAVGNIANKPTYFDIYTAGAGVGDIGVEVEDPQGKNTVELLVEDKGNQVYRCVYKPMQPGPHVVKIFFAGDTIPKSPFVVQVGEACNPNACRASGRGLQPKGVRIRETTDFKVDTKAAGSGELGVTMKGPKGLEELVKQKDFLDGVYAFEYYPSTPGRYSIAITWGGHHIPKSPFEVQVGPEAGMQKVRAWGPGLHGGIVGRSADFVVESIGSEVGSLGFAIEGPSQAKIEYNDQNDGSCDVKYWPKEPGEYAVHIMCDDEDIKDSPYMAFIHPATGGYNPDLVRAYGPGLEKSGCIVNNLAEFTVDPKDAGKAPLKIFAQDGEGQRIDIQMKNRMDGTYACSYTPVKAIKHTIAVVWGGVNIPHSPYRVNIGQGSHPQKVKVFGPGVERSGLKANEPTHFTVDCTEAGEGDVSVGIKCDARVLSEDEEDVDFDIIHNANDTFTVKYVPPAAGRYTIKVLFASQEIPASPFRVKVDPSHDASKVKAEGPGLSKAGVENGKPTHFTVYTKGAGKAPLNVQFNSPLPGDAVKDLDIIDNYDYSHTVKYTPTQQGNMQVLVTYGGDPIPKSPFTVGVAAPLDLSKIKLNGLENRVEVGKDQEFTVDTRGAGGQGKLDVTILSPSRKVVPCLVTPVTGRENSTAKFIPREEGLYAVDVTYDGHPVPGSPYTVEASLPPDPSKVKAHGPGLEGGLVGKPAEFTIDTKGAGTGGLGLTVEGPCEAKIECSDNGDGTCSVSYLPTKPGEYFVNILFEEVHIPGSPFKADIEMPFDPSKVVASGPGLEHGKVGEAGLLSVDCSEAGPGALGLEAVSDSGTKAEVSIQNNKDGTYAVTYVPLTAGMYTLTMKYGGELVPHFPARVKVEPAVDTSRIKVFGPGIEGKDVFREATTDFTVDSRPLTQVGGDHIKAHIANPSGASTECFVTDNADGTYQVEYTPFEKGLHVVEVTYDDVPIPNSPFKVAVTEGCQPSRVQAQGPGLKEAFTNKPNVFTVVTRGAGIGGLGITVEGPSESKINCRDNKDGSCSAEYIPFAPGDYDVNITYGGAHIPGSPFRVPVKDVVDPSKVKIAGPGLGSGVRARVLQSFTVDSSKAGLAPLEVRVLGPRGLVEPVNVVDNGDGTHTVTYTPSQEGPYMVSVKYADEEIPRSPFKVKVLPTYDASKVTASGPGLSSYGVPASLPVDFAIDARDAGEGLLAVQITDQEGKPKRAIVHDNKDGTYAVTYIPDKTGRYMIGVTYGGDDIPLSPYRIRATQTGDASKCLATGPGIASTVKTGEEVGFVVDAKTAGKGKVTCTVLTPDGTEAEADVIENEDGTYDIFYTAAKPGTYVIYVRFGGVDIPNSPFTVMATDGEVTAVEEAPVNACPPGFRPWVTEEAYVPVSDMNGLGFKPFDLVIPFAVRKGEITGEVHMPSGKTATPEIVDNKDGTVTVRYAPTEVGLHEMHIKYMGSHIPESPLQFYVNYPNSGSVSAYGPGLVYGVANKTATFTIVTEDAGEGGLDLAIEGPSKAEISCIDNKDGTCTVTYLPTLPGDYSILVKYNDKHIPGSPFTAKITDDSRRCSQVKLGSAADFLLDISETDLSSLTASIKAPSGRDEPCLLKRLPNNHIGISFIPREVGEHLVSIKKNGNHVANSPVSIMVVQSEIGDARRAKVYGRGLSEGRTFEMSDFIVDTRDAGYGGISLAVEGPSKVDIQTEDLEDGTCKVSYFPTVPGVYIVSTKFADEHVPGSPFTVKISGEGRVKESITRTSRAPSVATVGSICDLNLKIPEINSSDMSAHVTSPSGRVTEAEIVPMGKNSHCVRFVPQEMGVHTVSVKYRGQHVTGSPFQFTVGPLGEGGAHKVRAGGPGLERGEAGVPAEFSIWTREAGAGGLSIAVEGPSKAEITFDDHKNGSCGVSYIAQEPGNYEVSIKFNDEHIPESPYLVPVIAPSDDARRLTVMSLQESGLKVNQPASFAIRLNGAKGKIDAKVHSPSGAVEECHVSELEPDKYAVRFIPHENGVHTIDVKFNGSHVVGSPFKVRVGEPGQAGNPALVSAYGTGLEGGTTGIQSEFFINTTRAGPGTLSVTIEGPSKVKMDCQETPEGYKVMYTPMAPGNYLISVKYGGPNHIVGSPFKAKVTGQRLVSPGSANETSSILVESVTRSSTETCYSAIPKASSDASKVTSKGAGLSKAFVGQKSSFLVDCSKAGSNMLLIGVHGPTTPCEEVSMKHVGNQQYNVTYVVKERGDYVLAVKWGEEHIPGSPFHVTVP
UniProt P07954: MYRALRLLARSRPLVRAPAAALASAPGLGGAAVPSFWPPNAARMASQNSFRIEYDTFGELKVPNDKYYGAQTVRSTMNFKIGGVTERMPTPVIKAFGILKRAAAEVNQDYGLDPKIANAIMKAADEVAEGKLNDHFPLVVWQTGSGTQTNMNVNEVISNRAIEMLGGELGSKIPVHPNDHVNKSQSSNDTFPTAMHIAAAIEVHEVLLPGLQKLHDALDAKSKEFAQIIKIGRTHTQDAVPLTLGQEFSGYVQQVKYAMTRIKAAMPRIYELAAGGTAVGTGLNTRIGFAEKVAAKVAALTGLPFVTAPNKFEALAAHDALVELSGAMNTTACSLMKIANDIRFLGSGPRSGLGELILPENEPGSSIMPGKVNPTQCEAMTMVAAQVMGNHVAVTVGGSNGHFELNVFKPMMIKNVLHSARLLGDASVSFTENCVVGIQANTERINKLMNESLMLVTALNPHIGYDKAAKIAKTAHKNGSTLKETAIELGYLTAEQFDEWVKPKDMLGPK
UniProt Q96HJ9: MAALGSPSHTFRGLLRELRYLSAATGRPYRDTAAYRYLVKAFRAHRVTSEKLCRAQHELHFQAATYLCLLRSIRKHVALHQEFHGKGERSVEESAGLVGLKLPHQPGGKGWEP
UniProt Q5XUX1: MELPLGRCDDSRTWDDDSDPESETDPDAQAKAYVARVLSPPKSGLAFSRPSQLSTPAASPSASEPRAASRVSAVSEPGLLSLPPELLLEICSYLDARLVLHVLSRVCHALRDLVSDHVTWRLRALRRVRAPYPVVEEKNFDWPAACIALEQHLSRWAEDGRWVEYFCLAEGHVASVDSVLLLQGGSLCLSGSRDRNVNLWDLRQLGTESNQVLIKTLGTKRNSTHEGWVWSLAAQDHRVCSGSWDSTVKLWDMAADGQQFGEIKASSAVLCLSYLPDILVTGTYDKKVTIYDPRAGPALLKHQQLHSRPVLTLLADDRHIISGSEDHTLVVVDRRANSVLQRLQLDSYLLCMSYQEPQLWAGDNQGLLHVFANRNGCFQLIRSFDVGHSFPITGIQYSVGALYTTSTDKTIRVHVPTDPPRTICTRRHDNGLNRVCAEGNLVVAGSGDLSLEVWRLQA

These targets were tested with CC1=C2C(=CC=C1)N=C(N(C2=O)C3=CC=CC=C3C)CN4C=NC5=C(N=CN=C54)N (assay: log2 fold change, soluble protein after heating vs DMSO (PISA); higher = thermal stabilisation; K562 lysate, 10 uM; active = over 0.2 and 3.5 SD of the protein, either way, in both replicates (recomputed)).
Summary of the method: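 Following dounce homogenisation of K562 pellets in PBS pH 7.4 with 1 mM MgCl2, crude extract at 1 mg/mL protein was incubated for 30 min with 10 μM compound. Aliquots were then heated for 3 min over 48°C-58°C and pooled, NP-40 was added to 0.5% at 4°C, and soluble protein was recovered as the supernatant at 21,000xg for 90 min. Channel-sum-equalised TMTpro 16plex LC-MS/MS quantified this protein. Each value, from duplicates, is a log-two fold change in thermal stability relative to solvent controls.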

Row | Target | log2 fold change
1 | FGGY isoform 3 (UniProt Q96C11) | inactive: -0.016
2 | FHL3 (UniProt Q13643) | inactive: -0.008
3 | FEZ2 isoform 2 (UniProt Q9UHY8) | inactive: -0.036
4 | FARP1 isoform 2 (UniProt Q9Y4F1) | inactive: 0.016
5 | FBL (UniProt P22087) | inactive: -0.011
6 | FN3K (UniProt Q9H479) | inactive: 0.029
7 | FERMT3 (UniProt Q86UX7) | inactive: 0.009
8 | FNBP1L (UniProt Q5T0N5) | inactive: 0.012
9 | FDXR isoform 7 (UniProt P22570) | inactive: 0
10 | FDX2 (UniProt Q6P4F2) | inactive: -0.012
11 | FKBP15 (UniProt Q5T1M5) | inactive: 0.023
12 | FAM89A (UniProt Q96GI7) | inactive: -0.102
13 | FLT4 (UniProt P35916) | inactive: -0.031
14 | FIG4 (UniProt Q92562) | inactive: 0.037
15 | FEN1 (UniProt P39748) | inactive: -0.016
16 | FAM98A (UniProt Q8NCA5) | inactive: -0.048
17 | FLNB isoform 8 (UniProt O75369) | inactive: -0.023
18 | FH (UniProt P07954) | inactive: 0.017
19 | FMC1 (UniProt Q96HJ9) | inactive: -0.006
20 | FAM98B (UniProt Q52LJ0) | inactive: 0.015
21 | FBXW8 (UniProt Q8N3Y1) | inactive: 0.062
22 | FBXW9 (UniProt Q5XUX1) | inactive: 0.038
23 | FLVCR1 (UniProt Q9Y5Y0) | inactive: -0.07

A second format for part of the listing above.
Row	Target	log2 fold change
1	FGGY isoform 3 (UniProt Q96C11)	inactive: -0.016
2	FHL3 (UniProt Q13643)	inactive: -0.008
